The list shows a part of the results.
What was measured:
Test in all cases: glycan array binding signal (z-score within array); higher = stronger binding
Details in all cases: glycan notation: IUPAC condensed, linker removed
Neu5Ac(a2-8)Neu5Ac = target: Neu5Ac(a2-8)Neu5Ac
In short: (§1)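 The Consortium for Functional Glycomics database supplied 3228 glycan arrays, of which those lacking an available protein sequence were dropped. The binding signal, a within-array Z-score, was averaged across arrays of the same protein sequence and across linkers. Negative scores can be read as non-binding.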

[1] = target: Neu5Ac(a2-8)Neu5Ac(a2-3)Gal(b1-3)GalNAc(b1-4)[Neu5Ac(a2-3)]Gal(b1-4)Glc
In short: as §1

[2] = target: Neu5Ac(a2-8)Neu5Ac(a2-3)Gal(b1-3)GalNAc(b1-4)[Neu5Ac(a2-8)Neu5Ac(a2-3)]Gal(b1-4)Glc
In short: as §1

[3] = target: Neu5Ac(a2-8)Neu5Ac(a2-3)Gal(b1-4)Glc
In short: as §1

[4] = target: Neu5Ac(a2-8)Neu5Ac(a2-3)Gal(b1-4)GlcNAc
In short: as §1

[5] = target: Neu5Ac(a2-8)Neu5Ac(a2-3)[Gal(b1-3)GalNAc(b1-4)]Gal(b1-4)Glc
In short: as §1

[6] = target: Neu5Ac(a2-8)Neu5Ac(a2-3)[GalNAc(b1-4)]Gal(b1-4)Glc
In short: as §1

[7] = target: Neu5Ac(a2-8)Neu5Ac(a2-8)Neu5Ac
In short: as §1

[8] = target: Neu5Ac(a2-8)Neu5Ac(a2-8)Neu5Ac(a2-3)Gal(b1-4)Glc
In short: as §1

[9] = target: Neu5Ac(a2-8)Neu5Ac(a2-8)Neu5Ac(a2-3)[Gal(b1-3)GalNAc(b1-4)]Gal(b1-4)Glc
In short: as §1

[10] = target: Neu5Ac(a2-8)Neu5Ac(a2-8)Neu5Ac(a2-3)[GalNAc(b1-4)]Gal(b1-4)Glc
In short: as §1

[11] = target: Neu5Ac(a2-8)Neu5Ac(a2-8)Neu5Ac(a2-8)Neu5Ac(a2-3)[GalNAc(b1-4)]Gal(b1-4)Glc
In short: as §1

[12] = target: Neu5Ac(a2-8)Neu5Gc(a2-3)Gal(b1-4)GlcNAc
In short: as §1

[13] = target: Neu5Ac(b2-6)Gal(b1-4)GlcNAc
In short: as §1

Neu5Ac(b2-6)GalNAc = target: Neu5Ac(b2-6)GalNAc
In short: as §1

[14] = target: Neu5Ac9Ac(a2-3)Gal(b1-3)GlcNAc
In short: as §1

[15] = target: Neu5Ac9Ac(a2-3)Gal(b1-4)GlcNAc
In short: as §1

[16] = target: Neu5Ac9Ac(a2-6)Gal(b1-4)GlcNAc
In short: as §1

[17] = target: Neu5Gc(a2-3)Gal(b1-3)GlcNAc
In short: as §1

[18] = target: Neu5Gc(a2-3)Gal(b1-3)[Fuc(a1-4)]GlcNAc
In short: as §1

Neu5Gc(a2-3)Gal(b1-4)Glc = target: Neu5Gc(a2-3)Gal(b1-4)Glc
In short: as §1

[19] = target: Neu5Gc(a2-3)Gal(b1-4)GlcNAc
In short: as §1

[20] = target: Neu5Gc(a2-3)Gal(b1-4)GlcNAc(b1-3)Gal(b1-4)GlcNAc(b1-2)Man(a1-3)[Neu5Gc(a2-3)Gal(b1-4)GlcNAc(b1-3)Gal(b1-4)GlcNAc(b1-2)Man(a1-6)]Man(b1-4)GlcNAc(b1-4)GlcNAc
In short: as §1

[21] = target: Neu5Gc(a2-3)Gal(b1-4)[Fuc(a1-3)]GlcNAc
In short: as §1

[22] = target: Neu5Gc(a2-6)Gal(b1-4)GlcNAc
In short: as §1

Neu5Gc(a2-6)GalNAc = target: Neu5Gc(a2-6)GalNAc
In short: as §1

[23] = target: Neu5Gc(a2-8)Neu5Ac(a2-3)Gal(b1-4)GlcNAc
In short: as §1

[24] = target: Neu5Gc(a2-8)Neu5Gc(a2-3)Gal(b1-4)GlcNAc
In short: as §1

[25] = target: Neu5Gc(a2-8)Neu5Gc(a2-3)Gal(b1-4)GlcNAc(b1-3)Gal(b1-4)GlcNAc
In short: as §1

[26] = target: Neu5Gc(a2-8)Neu5Gc(a2-6)Gal(b1-4)GlcNAc
In short: as §1

[27] = target: Neu5Gc(b2-6)Gal(b1-4)GlcNAc
In short: as §1

B1: Aap lectin (Staphylococcus epidermidis) (protein)
chain: VNLNYSSPFMSLLSMPADSSSNNTKNTIDIPPTTVKGRDNYDFYGRVDIESNPTDLNATNLTRYNYGQPPGTTTAGAVQFKNQVSFDKDFDFNIRVANNRQSNTTGADGWGFMFSKKDGDDFLKNGGILREKGTPSAAGFRIDTGYYNNDPLDKIQKQAGQGYRGYGTFVKNDSQGNTSKVGSGTPSTDFLNYADNTTNDLDGKFHGQKLNNVNLKYNASNQTFTATYAGKTWTATLSELGLSPTDSYNFLVTSS
What does the source list for B1?
glycan array binding signal (z-score) (Neu5Ac(a2-8)Neu5Ac): -0.919; glycan array binding signal (z-score) [1]: -0.872; glycan array binding signal (z-score) [2]: 1.01; glycan array binding signal (z-score) [3]: -0.83; glycan array binding signal (z-score) [4]: -0.904; glycan array binding signal (z-score) [5]: -0.121; glycan array binding signal (z-score) [6]: 0.239; glycan array binding signal (z-score) [7]: -0.51; glycan array binding signal (z-score) [8]: -0.827; glycan array binding signal (z-score) [9]: -0.084; glycan array binding signal (z-score) [10]: 0.064; glycan array binding signal (z-score) [11]: -0.444; glycan array binding signal (z-score) [12]: -0.896; glycan array binding signal (z-score) [13]: -0.739; glycan array binding signal (z-score) (Neu5Ac(b2-6)GalNAc): -0.527; glycan array binding signal (z-score) [14]: 0.704; glycan array binding signal (z-score) [15]: -0.7; glycan array binding signal (z-score) [16]: -0.754; glycan array binding signal (z-score) [17]: 0.725; glycan array binding signal (z-score) [18]: 0.428; glycan array binding signal (z-score) (Neu5Gc(a2-3)Gal(b1-4)Glc): -0.1; glycan array binding signal (z-score) [19]: -0.511; glycan array binding signal (z-score) [20]: 0.099; glycan array binding signal (z-score) [21]: 1.29; glycan array binding signal (z-score) [22]: -0.275; glycan array binding signal (z-score) (Neu5Gc(a2-6)GalNAc): -0.523; glycan array binding signal (z-score) [23]: -0.74; glycan array binding signal (z-score) [24]: 1.51; glycan array binding signal (z-score) [25]: -0.285; glycan array binding signal (z-score) [26]: -0.88; glycan array binding signal (z-score) [27]: 0.72
